The values that follow come from the supplement of paper PMC7125110.

B1: glmS ribozyme (parent)
chain: AUAAAAGCGCCAGAACUACAGAAAUGUAGUUGACGAGGAGGAGGUUUAUCGAAUUUUCGGCGGAUGCCUCCAAA

± gives the standard error. Many entries were measured with a wide error.

In general, kcat refers to the maximal rate divided by the concentration of active sites. Usually KM stands for the substrate concentration at which the rate is half of its maximum.

The variants in the first series derive from B1. In words: kcat; higher = faster cleavage; RNA array. The conditions noted are these: with glucosamine-6-phosphate. An outline of the steps:
(§1)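 Weighted Michaelis–Menten fits across concentrations supplied kcat and KM, based on kobs from one- or two-exponential decay fits to normalised per-tile medians. The data came from barcoded ribozyme variants transcribed in situ by E. coli RNA polymerase on sequenced MiSeq chips and tracked at 37 °C by a hybridised Cy3 probe. Glucosamine-6-phosphate (40 μM to 10 mM) in HEPES/KCl/Mg(OAc)2 buffer was flowed in.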
With AUAAAAGCGCUAGAAUUACAGAAAUGUAGUUGACGAGGAGGAGGUUUAUCGAAUUUUCGGCGGAUGCCUCCAAA [C11U C16U], the kcat was 0.00296 ± 0.002 s⁻¹. With AUAAAAGCGCUAGAAAUACAGAAAUGUAGUUGACGAGGAGGAGGUUUAUCGAAUUUUCGGCGGAUGCCUCCAAA [C11U C16A], the kcat is 0.000174 ± 7e-06 s⁻¹. Take AUAAAAUCGCCAGAACUACAGAAAUGUAGUUGACGAGGAGGAGGUUUAUCGAAUUUUCGGCGGAUGGCUCCAAA [G7U C67G]: the kcat is less than 1e-05 s⁻¹. Turning to AUAAACGCGCCAGAACUACAGAAAUGUACUUGACGAGGAGGAGGUUUAUCGAAUUUUGGGCGGAUGCCUCAAAA [A6C G29C C58G C71A], the kcat came to 5.61e-05 ± 2.9e-05 s⁻¹.

Regarding AUAAAAGCGACAGAACUACAGAAAUGUAGUUGACGAGGAGGAGGUUUAUCGAAUUUUCGGCUGAUGCCUGCAAA [C10A G62U C70G], the kcat was determined as 6.75e-05 ± 3.9e-05 s⁻¹. As to AUAAAUGCGCCGGAACUACAGAAAUGUAGUUGACGAGGAGGAGGUUUAUCGAAUUUUCGGCGGAUUCCUCCAAA [A6U A12G G66U], the kcat is 4.75e-05 ± 3.2e-05 s⁻¹. As to AUAAAAGCGAAAGAACUACAGAAAUGUAGUUGACGAGGAGGAGGUUUAUCAAAUUUUCGGCGGAUGCCUCCAAA [C10A C11A G51A], the kcat was less than 1e-05 s⁻¹. For AUAAAAGCGACAGAACUACAGAAAUGUAGUUAACGAGGAGGAGGUUAAUCGAAUUUUCGGCGGAUGCCUCCAAA [C10A G32A U47A], the catalytic constant (kcat) is less than 1e-05 s⁻¹.

For AUAAAAGCGACAGUACUACAGAAAUGUAGUUGACGAGGAGGAGGUUUAUCGUAUUUUCGGCGGAUGCCUGCAAA [C10A A14U A52U C70G], the kcat was determined as 0.000142 ± 0.0001 s⁻¹. Turning to AUAAACGCGCCAGAACUACAGAAAUGUAGGUGACGAGGAGGAGGUUUAUCGAAUUUUCGGCGGAUGCCUCCAAA [A6C U30G], the kcat was determined as 2.38e-05 ± 1.3e-05 s⁻¹.

Regarding AUAAAGGCGCCAGAAUUACAGAAAUGUAGUUGACGAGGCGGAGGUUUAUCGAAUUUUCGGCGGAUGCCUCCAAA [A6G C16U A39C], the kcat worked out at 0.000121 ± 6.3e-05 s⁻¹. As for AUAAACGCGCCAGAACUACAGAAAUGUAGUGGACGAGGAGGAGGUUUAUCGAAUUUUCGGCGGAUGCCUCCAAA [A6C U31G], the kcat was determined as 2.39e-05 ± 9.7e-07 s⁻¹. With AUAAAGGCGCCAGAACUACAGAAAUGUAGUUGACGAGGAGGAGGUUUAUCGAAUUUUCGGCGGAAGCCUCCAAA [A6G U65A], the turnover number (kcat) was 7.49e-05 ± 1.1e-05 s⁻¹. For AUAAAAGCGUCAGAACUACAGAAAUGUAGUUGACGAGGAGGAGUUUUAUCGAAUUUUCGGCGGAUACCUCCAAA [C10U G44U G66A], the turnover number (kcat) is 1.01e-05 ± 7.1e-06 s⁻¹. As for AUAAAAUCGCCAGAACUACAGAAAUGUAGUUGACGAGGAGGAGGUUUAUCGAAUUUUCGGUGGAUGCGUCCAAA [G7U C61U C68G], the kcat came out at 3.13e-05 ± 2.3e-05 s⁻¹. The same measure, in the same setting: the figure for AUAAAAGCGCUAGAACUACAGAAAUGUAGUUGACGAGGAGGAGGUUUAUCGAAUUUUCGGCGGAUGCAUCGAAA [C11U C68A C71G] is 5.97e-05 ± 2.3e-05 s⁻¹.

With AUAAAAGCGUCAGAACUACAGAAAUGUAGUUGGCGAGUAGGAGGUUUAUCGAAUUUUCGGCGGAUGCUUCCAAA [C10U A33G G38U C68U], the turnover number (kcat) was determined as 2.17e-05 ± 1.2e-05 s⁻¹.

On to AUAAACGCGCCAGAACUACAGAAAUGUAGUUGACGAGGAGGAGGUUUAUCGAAUUUUCGGCGGAUGCCUACAAA [A6C C70A], for which the kcat turned out to be 1.39e-05 ± 2.5e-06 s⁻¹.

Turning to AUAAAAGCGCAUGAACUACAGAAAUGUAGUUGACGAGGAGGAGGUUUAUCGAAUUUUCGGCGGAUGCCUCCAAA [C11A A12U], the turnover number (kcat) amounted to 0.00147 ± 0.00076 s⁻¹.

Take AUAAAAGCGGCGGAACUACAGAAAUGUAGUUGACGAGUAGGAGGUUUAUAGUAUUUUCGGCGGAUGCCUCCAAA [C10G A12G G38U C50A A52U]: the kcat is 1.78e-05 ± 9.3e-06 s⁻¹. In the case of AUAAAAGCGGGAGAACUACAGAAAUGUAGUUGUCGAGGAGGAGGUUUAUCGAAUUUUCGGCGGAUGCGUCCAAA [C10G C11G A33U C68G], the kcat came out at 5.87e-05 ± 3.1e-05 s⁻¹.

A further series covers variants of B1. The series is described as follows: KM; higher = weaker cofactor use; RNA array. The conditions noted are these: with glucosamine-6-phosphate. An outline of the steps:
as §1
Turning to AUAAAAGCGCUAGAAUUACAGAAAUGUAGUUGACGAGGAGGAGGUUUAUCGAAUUUUCGGCGGAUGCCUCCAAA [C11U C16U], the Michaelis constant (KM) is 4.59 ± 3.8 mM. AUAAAAGCGCUAGAAAUACAGAAAUGUAGUUGACGAGGAGGAGGUUUAUCGAAUUUUCGGCGGAUGCCUCCAAA [C11U C16A]: the KM worked out at 1.76 ± 0.19 mM. In the case of AUAAACGCGCCAGAACUACAGAAAUGUAGGUGACGAGGAGGAGGUUUAUCGAAUUUUCGGCGGAUGCCUCCAAA [A6C U30G], the KM was determined as 3.64 ± 2.6 mM. As to AUAAAGGCGCCAGAAUUACAGAAAUGUAGUUGACGAGGCGGAGGUUUAUCGAAUUUUCGGCGGAUGCCUCCAAA [A6G C16U A39C], the KM was 10 ± 9.9 mM. The same measure, in the same setting: then AUAAACGCGCCAGAACUACAGAAAUGUAGUGGACGAGGAGGAGGUUUAUCGAAUUUUCGGCGGAUGCCUCCAAA [A6C U31G], with 3.73 ± 0.51 mM; and AUAAAGGCGCCAGAACUACAGAAAUGUAGUUGACGAGGAGGAGGUUUAUCGAAUUUUCGGCGGAAGCCUCCAAA [A6G U65A], with 2.19 ± 1.2 mM; and AUAAAAGCGCAUGAACUACAGAAAUGUAGUUGACGAGGAGGAGGUUUAUCGAAUUUUCGGCGGAUGCCUCCAAA [C11A A12U], with 3.07 ± 2.5 mM.

A further series covers variants of B1. In words: self-cleavage kobs at 2500 uM GlcN6P; higher = faster cleavage; RNA array. The settings on record: with glucosamine-6-phosphate. An outline of the steps: as §1
Turning to AUAAACGCGCCAGAACUACAGAAAUGUACUUGACGAGGAGGAGGUUUAUCGAAUUUUGGGCGGAUGCCUCAAAA [A6C G29C C58G C71A], the “self-cleavage kobs at 2500 uM GlcN6P” value was 3.95e-05 ± 3.6e-05 s⁻¹. Take AUAAAUGCGCCGGAACUACAGAAAUGUAGUUGACGAGGAGGAGGUUUAUCGAAUUUUCGGCGGAUUCCUCCAAA [A6U A12G G66U]: the “self-cleavage kobs at 2500 uM GlcN6P” value is 0.000799 ± 0.00064 s⁻¹. For AUAAAGGCGCCAGAAUUACAGAAAUGUAGUUGACGAGGCGGAGGUUUAUCGAAUUUUCGGCGGAUGCCUCCAAA [A6G C16U A39C], the “self-cleavage kobs at 2500 uM GlcN6P” value turned out to be 2.07e-05 ± 1.2e-05 s⁻¹. As to AUAAAAGCGCUAGAACUACAGAAAUGUAGUUGACGAGGAGGAGGUUUAUCGAAUUUUCGGCGGAUGCAUCGAAA [C11U C68A C71G], the “self-cleavage kobs at 2500 uM GlcN6P” value was 5.45e-05 ± 3.3e-05 s⁻¹.

Another series covers variants of B1. In words: self-cleavage kobs at 40 uM GlcN6P; higher = faster cleavage; RNA array. The settings on record: with glucosamine-6-phosphate. An outline of the steps:
as §1
As for AUAAAAGCGACAGUACUACAGAAAUGUAGUUGACGAGGAGGAGGUUUAUCGUAUUUUCGGCGGAUGCCUGCAAA [C10A A14U A52U C70G], the “self-cleavage kobs at 40 uM GlcN6P” value was determined as 2.94e-05 ± 2.6e-05 s⁻¹.

Turning to AUAAAAGCGCUAGAACUACAGAAAUGUAGUUGACGAGGAGGAGGUUUAUCGAAUUUUCGGCGGAUGCAUCGAAA [C11U C68A C71G], the “self-cleavage kobs at 40 uM GlcN6P” value came out at 3.12e-05 ± 2.3e-05 s⁻¹.

In the next series the parent is B1. The series is described as follows: self-cleavage kobs at 640 uM GlcN6P; higher = faster cleavage; RNA array. The conditions noted are these: with glucosamine-6-phosphate. An outline of the steps:
as §1
Take AUAAAGGCGCCAGAAUUACAGAAAUGUAGUUGACGAGGCGGAGGUUUAUCGAAUUUUCGGCGGAUGCCUCCAAA [A6G C16U A39C]: the “self-cleavage kobs at 640 uM GlcN6P” value was found to be 2.53e-05 ± 1.9e-05 s⁻¹. As to AUAAAAGCGUCAGAACUACAGAAAUGUAGUUGGCGAGUAGGAGGUUUAUCGAAUUUUCGGCGGAUGCUUCCAAA [C10U A33G G38U C68U], the “self-cleavage kobs at 640 uM GlcN6P” value was 3.19e-05 ± 3.1e-05 s⁻¹.

Variants of B1 are the subject of another series. In words: self-cleavage kobs at 10000 uM GlcN6P; higher = faster cleavage; RNA array. The settings on record: with glucosamine-6-phosphate. An outline of the steps:
as §1
Consider AUAAAAUCGCCAGAACUACAGAAAUGUAGUUGACGAGGAGGAGGUUUAUCGAAUUUUCGGUGGAUGCGUCCAAA [G7U C61U C68G], for which the “self-cleavage kobs at 10000 uM GlcN6P” value was found to be 3.73e-05 ± 1.9e-05 s⁻¹. With AUAAAAGCGCUAGAACUACAGAAAUGUAGUUGACGAGGAGGAGGUUUAUCGAAUUUUCGGCGGAUGCAUCGAAA [C11U C68A C71G], the “self-cleavage kobs at 10000 uM GlcN6P” value came out at 3.58e-05 ± 1.9e-05 s⁻¹.
